# From article PMC10908869
# Results are given in words; binding and its absence hold for the method and conditions named. In cells and extracts the contact can be indirect. Binding can be weak; no strength is given.
# Biological target: T1, MiD49 (mitochondrial dynamics protein of 49 KDa) (UniProt Q96C03)
# T1 sequence: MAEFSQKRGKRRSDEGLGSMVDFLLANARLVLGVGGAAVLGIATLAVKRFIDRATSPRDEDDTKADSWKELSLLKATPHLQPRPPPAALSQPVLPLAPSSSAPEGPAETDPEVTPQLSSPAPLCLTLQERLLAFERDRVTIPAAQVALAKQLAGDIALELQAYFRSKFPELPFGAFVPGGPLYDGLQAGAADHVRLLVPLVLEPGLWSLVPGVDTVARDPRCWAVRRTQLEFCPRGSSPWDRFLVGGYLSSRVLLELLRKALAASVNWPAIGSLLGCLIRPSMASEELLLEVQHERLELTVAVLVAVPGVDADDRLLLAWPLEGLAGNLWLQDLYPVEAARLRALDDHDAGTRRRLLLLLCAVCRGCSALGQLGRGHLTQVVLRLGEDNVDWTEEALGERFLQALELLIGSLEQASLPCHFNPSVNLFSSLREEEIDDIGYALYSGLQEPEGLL
# Assay: co-IP; co-immunoprecipitation with MiD49 or MFF from cells with DRP1 or DRP1^K532R (mCherry-DRP1 constructs); details in Figures S7D, S7E
row,Substance,binding
1,mCherry-tagged DRP1^K532R,binds
2,"mCherry-tagged DRP1 (wild type, isoform 3)",binds
